Among the data in publication doi:10.1101/325712 (bioRxiv, 2018) are binding values, retold here.

Sequences of proteins named here, by UniProt entry; tags and fusion partners are left off. Residues count along the entry.
UniProt P04792, residues 84-171: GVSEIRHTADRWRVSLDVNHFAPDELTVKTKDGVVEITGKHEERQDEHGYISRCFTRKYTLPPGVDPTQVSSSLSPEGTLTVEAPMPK

Experiment [1] deals with T1, human FLNC domains 18-21 (residues 1943-2408), EEF-tagged (human) (UniProt Q14315).
T1 sequence: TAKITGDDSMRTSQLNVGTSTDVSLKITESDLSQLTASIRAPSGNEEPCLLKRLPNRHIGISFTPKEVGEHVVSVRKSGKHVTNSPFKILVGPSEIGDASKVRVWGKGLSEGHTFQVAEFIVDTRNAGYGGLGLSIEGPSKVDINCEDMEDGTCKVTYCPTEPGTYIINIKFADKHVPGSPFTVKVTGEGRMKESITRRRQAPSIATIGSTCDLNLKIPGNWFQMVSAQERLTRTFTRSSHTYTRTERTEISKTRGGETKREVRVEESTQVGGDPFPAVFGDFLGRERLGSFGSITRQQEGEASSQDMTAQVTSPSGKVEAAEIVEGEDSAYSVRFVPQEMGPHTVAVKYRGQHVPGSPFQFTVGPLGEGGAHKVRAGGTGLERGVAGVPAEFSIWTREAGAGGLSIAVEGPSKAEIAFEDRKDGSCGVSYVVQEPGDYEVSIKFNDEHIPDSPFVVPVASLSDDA
Briefly: native MS.

Experiment [2] concerns the target T2, human FLNC domains 18-21 lacking the d20 insertion (residues 1943-2408 excluding 2163-2243) (human) (UniProt Q14315).
T2 sequence: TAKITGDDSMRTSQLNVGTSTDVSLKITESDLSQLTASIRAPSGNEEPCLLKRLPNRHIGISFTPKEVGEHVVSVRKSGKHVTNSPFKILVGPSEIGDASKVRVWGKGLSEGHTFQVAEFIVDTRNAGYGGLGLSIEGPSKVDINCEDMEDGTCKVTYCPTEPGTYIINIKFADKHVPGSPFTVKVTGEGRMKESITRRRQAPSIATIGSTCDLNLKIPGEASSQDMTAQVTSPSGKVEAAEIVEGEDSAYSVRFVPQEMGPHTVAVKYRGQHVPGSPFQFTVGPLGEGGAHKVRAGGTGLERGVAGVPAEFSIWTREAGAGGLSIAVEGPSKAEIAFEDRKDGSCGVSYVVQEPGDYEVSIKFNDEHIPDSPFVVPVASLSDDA
Briefly: native MS.

These are yes or no findings as the source states them, for the method shown. Some entries that bind do so weakly or less than the wild type. For some assays here: Sequences can lack the tags named with a protein.

Turning to “HspB1 peptide residues 80-88, phosphorylated (from UniProt P04792 80-88)”, the binding result in experiment [1] was “binds weakly”.

Turning to “HspB1 peptide residues 80-88, unphosphorylated (from UniProt P04792 80-88)”, the binding entry in experiment [1] is recorded as “binds weakly”; in experiment [2], “binds”.

For the substance “human HspB1 ACD (residues 84-171) (from UniProt P04792 84-171) (domain or fragment)”, the binding entry in experiment [1] is “no binding”.

For “peptide mimicking HspB1 C-terminal residues 177-186 (from UniProt P04792 177-186)”, the binding entry in experiment [1] was “no binding”.
